Reference: patent publication US20180355035A1 (STCUBE, published 2018)
Results are given in words; binding and its absence hold for the method and conditions named. Some results given as binding are weak or reduced against the parent protein; the word gives no strength. For part of these data: Where a sequence is shown, tags or fusion partners need not be part of it.

Protein sequences, listed by entry. Tags and fused reporters are not part of them. Lines headed by an entry give the natural chain unless they say otherwise; changes in a name come on top.
UniProt Q13410: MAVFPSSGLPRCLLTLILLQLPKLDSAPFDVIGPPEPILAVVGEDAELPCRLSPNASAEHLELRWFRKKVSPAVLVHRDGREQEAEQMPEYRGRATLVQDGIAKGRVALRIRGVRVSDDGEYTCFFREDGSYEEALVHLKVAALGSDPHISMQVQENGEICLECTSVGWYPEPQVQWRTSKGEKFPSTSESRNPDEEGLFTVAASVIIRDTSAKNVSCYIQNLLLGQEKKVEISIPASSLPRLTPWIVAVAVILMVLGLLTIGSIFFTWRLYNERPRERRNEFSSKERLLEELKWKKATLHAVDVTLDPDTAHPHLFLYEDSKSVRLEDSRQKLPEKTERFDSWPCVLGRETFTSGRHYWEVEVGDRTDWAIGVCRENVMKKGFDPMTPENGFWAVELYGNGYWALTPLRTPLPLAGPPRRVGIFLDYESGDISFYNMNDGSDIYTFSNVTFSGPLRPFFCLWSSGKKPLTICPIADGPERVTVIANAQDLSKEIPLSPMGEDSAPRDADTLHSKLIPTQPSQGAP

Tests used:
[1] = target: T1, BTN1A1 in human prostate cancer samples (human) (UniProt Q13410); assay: OPAL multiplexed immunofluorescence on prostate tumor samples
T1 sequence: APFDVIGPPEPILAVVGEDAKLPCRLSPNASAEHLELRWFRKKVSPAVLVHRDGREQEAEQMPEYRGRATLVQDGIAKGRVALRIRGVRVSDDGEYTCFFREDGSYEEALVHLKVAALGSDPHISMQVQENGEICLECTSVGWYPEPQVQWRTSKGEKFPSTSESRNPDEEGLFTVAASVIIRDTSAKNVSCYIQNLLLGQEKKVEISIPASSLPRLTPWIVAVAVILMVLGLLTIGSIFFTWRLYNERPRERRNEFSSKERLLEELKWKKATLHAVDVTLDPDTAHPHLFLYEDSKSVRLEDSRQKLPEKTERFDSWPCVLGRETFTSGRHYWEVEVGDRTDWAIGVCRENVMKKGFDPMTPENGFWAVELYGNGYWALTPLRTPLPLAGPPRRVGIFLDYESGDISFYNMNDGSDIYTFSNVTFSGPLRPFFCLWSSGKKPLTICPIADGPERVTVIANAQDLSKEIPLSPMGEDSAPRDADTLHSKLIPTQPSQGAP

[2] = target: T2, human BTN1A1 extracellular domain tagged with 6xHis (human) (UniProt Q13410); assay: dot blot, glycosylated vs PNGase F treated BTN1A1-ECD-His on solid phase
T2 sequence (chain, N-glycosylated (removed by PNGase F in the deglycosylated control)): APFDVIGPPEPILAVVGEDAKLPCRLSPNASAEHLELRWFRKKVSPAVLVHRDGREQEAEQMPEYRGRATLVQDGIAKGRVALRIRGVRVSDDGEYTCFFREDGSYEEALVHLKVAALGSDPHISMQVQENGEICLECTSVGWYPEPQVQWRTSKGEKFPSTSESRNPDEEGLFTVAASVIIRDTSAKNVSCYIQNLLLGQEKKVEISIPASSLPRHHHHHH

[3] = target: T1, BTN1A1 in human prostate cancer samples (human); assay: IHC on formalin-fixed paraffin-embedded prostate tumor sections, 3 and 5 µg/ml, DAB

Measured: binding

B1: mouse monoclonal anti-human BTN1A1 antibody STC810 (antibody, V domains shown)
VH: EVQLQQSGPELVKPGASVKISCKASGYTFTHYNMDWVKQSHGKSLEWIGYIYPSNGGTGYNQKFKSRATLTVDKSSSTAYMELHSLTSEDSAVYYCARGAYHYGSSYAYWYFDVWGAGTTVTVSS
VL: DIQMTQTTSSLSASLGDRVTISCSASQDISNYLNWYQQKPDETVKLLISYTSSLHSGVPSRFSGSGSGTDYSLTISNLAPEDIATYYCQQSSKLPFTFGSGTELEIKR
notes: also called STC838; STC810 MAb
binds: all assays above
